Some entries share one result that the patent states for a list of compounds. At least one structure is not confirmed: it was looked up by name or label, or the drawing left a doubt. Some ranges recur; such a range may be that of the whole group of compounds.
What was measured:
Format in all cases: in vivo
Podosphaera Leucotricha = assay: Action against Podosphaera leucotricha on apple shoots; details: apple cuttings, spray mixture 0.06% a.i., infected 24 hours later, evaluation 12 days after infection
Erysiphe Graminis [1] = assay: Action against Erysiphe graminis on barley, a) residual-protective action; details: spray 0.02% a.i., dusted with conidia 3 to 4 hours later, evaluation 12 days after infection
Uncinula Necator = assay: Action against Uncinula necator on vines; details: vine cuttings, spray 200 ppm a.i., infected 24 hours later, evaluation ca. 14 days after infection
Erysiphe Graminis [2] = assay: Action against Erysiphe graminis on barley, b) systemic action; details: soil drench 0.002% a.i. based on soil volume, dusted with conidia 48 hours later, evaluation 12 days after infection

SMILES | infestation (Podosphaera Leucotricha) | infestation compared with the control plants (Erysiphe Graminis [1]) [%] | infestation compared with the control plants (Uncinula Necator) [%] | infestation compared with the control plants (Erysiphe Graminis [2]) [%]
CCCCc1nc2ccc(Cl)cc2c(=NC)n1CCC [Compound 1.72] | 0-5% | ≤ 20 | ≤ 20 | ≤ 20
CCCCc1nc2ccc(Br)cc2c(=NC)n1CCC [Compound 1.81] | 0-5% | ≤ 20 | ≤ 20 | ≤ 20
CCCN=c1c2cc(Cl)ccc2nc(OCCC)n1CCC [Compound 1.152, (6-Chloro-2-propoxy-3-propyl-3H-quinazoline-4-ylidene)propylamine] | 0-5% | ≤ 20 | ≤ 20 | ≤ 20
CCCCN=c1c2cc(Cl)ccc2nc(OCCC)n1CCCC [Compound 1.160] | 0-5% | ≤ 20 | ≤ 20 | ≤ 20
CCCOc1nc2ncc(Br)cc2c(=N)n1CCC [Compound 2.11] | 0-5% | ≤ 20 | ≤ 20 | ≤ 20
CCCOc1nc2c(Br)csc2c(=NC)n1CCC [Compound 3.6] | 0-5% | ≤ 20 | ≤ 20 | ≤ 20
CCCCc1nc2sccc2c(=N)n1CCC [Compound 4.3] | 0-5% | ≤ 20 | ≤ 20 | ≤ 20
CCCOc1nc2sccc2c(=N)n1CCC [Compound 4.5] | 0-5% | ≤ 20 | ≤ 20 | ≤ 20
CCCCn1c(OCCC)nc2sccc2c1=N [Compound 4.6] | 0-5% | ≤ 20 | ≤ 20 | ≤ 20
CCCCc1nc2sc(Cl)cc2c(=NC)n1CCC [Compound 4.27, (2-Butyl-6-chloro-3-propyl-3H-thieno [2,3-d]pyrimidine-4-ylidene)methylamine] | 0-5% | ≤ 20 | ≤ 20 | ≤ 20
CCCCn1c(OCCC)nc2sc(Cl)cc2c1=NC [Compound 4.30] | 0-5% | ≤ 20 | ≤ 20 | ≤ 20
CCCOc1nc2sc(Br)cc2c(=NC)n1CCC [Compound 4.38, (6-Bromo-3-propyl-2-propoxy-3H-thieno[2,3-d]pyrimidine-4-ylidene)methylamine] | 0-5% | ≤ 20 | ≤ 20 | ≤ 20
CCCCn1c(OCCC)nc2sc(Br)cc2c1=NC [Compound 4.39] | 0-5% | ≤ 20 | ≤ 20 | ≤ 20
CCCCc1nc2sc(Cl)cc2c(=NCC)n1CCC [Compound 4.43] | 0-5% | ≤ 20 | ≤ 20 | ≤ 20
CCCOc1nc2sc(Cl)cc2c(=NCC)n1CCC [Compound 4.45] | 0-5% | ≤ 20 | ≤ 20 | ≤ 20
C=CCN=c1c2cc(Cl)sc2nc(OCCC)n1CCC [Compound 4.62] | 0-5% | ≤ 20 | ≤ 20 | ≤ 20
C#CCN=c1c2cc(Cl)sc2nc(OCCC)n1CCC [Compound 4.80] | 0-5% | ≤ 20 | ≤ 20 | ≤ 20
CCCOc1nc2sc(Cl)cc2c(=NCl)n1CCC [Compound 4.111] | 0-5% | ≤ 20 | ≤ 20 | ≤ 20

Source: patent US20030040521A1, “Novel pyrimidin-4-enamine as fungicide” (priority 1998, published 2003)
